From patent US20030124508A1, “Method for testing the hormonal effect of substances” (priority 2001, published 2003)
Results are given in words; binding and its absence hold for the method and conditions named. Some results given as binding are weak or reduced against the parent protein; the word gives no strength.

Protein sequences, listed by entry. Tags and fused reporters are not part of them. Residues count along the entry.
UniProt P10275, residues 325-919: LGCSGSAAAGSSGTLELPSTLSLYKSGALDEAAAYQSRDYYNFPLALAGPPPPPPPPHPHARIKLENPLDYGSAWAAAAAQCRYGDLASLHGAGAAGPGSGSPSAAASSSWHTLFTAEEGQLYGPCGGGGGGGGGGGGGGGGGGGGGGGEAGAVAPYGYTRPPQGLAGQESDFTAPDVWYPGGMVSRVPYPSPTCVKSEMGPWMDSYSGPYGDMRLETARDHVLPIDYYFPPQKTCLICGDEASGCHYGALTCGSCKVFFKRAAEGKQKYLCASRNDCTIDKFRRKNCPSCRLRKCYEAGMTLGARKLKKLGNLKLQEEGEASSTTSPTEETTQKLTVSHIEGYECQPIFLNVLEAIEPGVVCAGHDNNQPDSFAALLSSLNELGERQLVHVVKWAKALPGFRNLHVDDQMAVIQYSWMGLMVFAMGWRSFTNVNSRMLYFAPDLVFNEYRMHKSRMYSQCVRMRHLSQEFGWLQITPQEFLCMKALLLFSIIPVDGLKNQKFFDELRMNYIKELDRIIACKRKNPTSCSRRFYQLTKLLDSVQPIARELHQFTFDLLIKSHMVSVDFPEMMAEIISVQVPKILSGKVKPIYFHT

How the values were obtained:
[1] = biological target: human AR fragment which codes for amino acids 325-919 (human) (UniProt P10275); test: yeast two-hybrid screen of a fetal brain cDNA library, beta-galactosidase assay, no androgen
[2] = biological target: human AR fragment which codes for amino acids 325-919 (human) (UniProt P10275); test: yeast two-hybrid, AR 325-919 as bait, no androgen

B1: ARAP11 two-hybrid clone with an insert comprising 1,169 bp (3,243 bp-4,412 bp), which codes for a part of the ORF (protein)
chain: TVKDYLRDIDLICSNALEYNPDRDPGDRLIRHRACALRDTAYAIIKEELDEDFEQLCEEIQESRKKRGCSSSKYAPSYYHVMPKQNSTLVGDKRSDPEQNEKLKTPSTPVACSTPAQLKRKIRKKSNWYLGTIKKRRKISQAKDDSQNAIDHKIESDTEETQDTSVDHNETGNTGESSVEENEKQQNASESKLELRNNSNTCNIENELEDSRKTTACTELRDKIACNGDASSSQIIHISDENEGKEMCVLRMTRARRSQVEQQQLITVEKALAILSQPTPSLVVDHERLKNLLKTVVKKSQNYNIFQLENLYAVISQCIYRHRKDHDKTSLIQKMEQEVENFSCSR
- binding [1]: binds
- binding [2]: binds
